According to the supplement of paper PMC3334620:
In all, about 33,000 sequences were measured (“E-score (-0.5 to 0.5)”: median about -8e-05, highest 2% from about 0.23 on). The list shows a part of the results.

The sequences below were run against T1, Nrg2 (UniProt P38082) (assay: PBM E-score (8-mer binding enrichment) (E-score (-0.5 to 0.5)); higher = stronger / more preferred TF binding). Conditions: protein concentration: 100 nM; construct: GST-full length.
T1 sequence: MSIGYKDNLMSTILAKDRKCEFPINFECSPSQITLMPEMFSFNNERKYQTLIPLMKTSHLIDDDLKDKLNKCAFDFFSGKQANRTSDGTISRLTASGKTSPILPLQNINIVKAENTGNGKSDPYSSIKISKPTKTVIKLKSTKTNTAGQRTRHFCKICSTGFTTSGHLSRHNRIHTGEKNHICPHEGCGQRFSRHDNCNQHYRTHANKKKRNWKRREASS
Method in brief: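 Universal all-10-mer Agilent arrays, double-stranded by primer extension on fresh or once-stripped slides, were probed with about 100-200 nM GST-tagged yeast transcription factors made by PURExpress. Fluorescent anti-GST detected bound protein, and masliner normalised the scans. E-scores from the Universal PBM Analysis Suite were given to each ungapped eight-base word pooled with its reverse complement.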

Sequence	PBM E-score
CGACCGTC	-0.108
AGCGCGCG	0.274
AATTCACT	0.0634
ATCCTCAC	0.0624
ATTGAAGA	-0.0095
ACAGTCCT	-0.185
AAACCTCG	-0.0755
AGTGAGAA	0.155
AGTACCAT	-0.167
GCTCGCTA	-0.0335
ATAGGAGG	-0.285
TGGAATAA	0.00839
ACCACACT	-0.0284
TTACCCAA	-0.0831
CGGTATCC	-0.0279
ATAAATAT	0.245
CTGAGGGC	-0.146
ATAATTGA	0.276
GACGAAGA	0.0138
TAGCTTGA	-0.168
TAGTGCGA	0.0178
CCCTCGCG	0.136
CGTGTAAC	-0.148
ATCCCTCC	-0.147
TCGCACCA	0.0204

Sequence	PBM E-score
CGCACGGA	0.0769
GAGATTAC	0.0388
CTACACCC	0.0683
CGGTCGCC	-0.0266
GCGGCCAC	-0.0725
CTAGTTTC	0.17
TCCCCGGA	0.0204
GAACCGCC	-0.146
CAGGGGAA	0.106
CGTTCGCC	-0.0911
CGTAAGGC	-0.16
ACAGTGCC	0.0305
ACCTCGGC	0.202
GACTTAGC	-0.119
ACTTGTAG	-0.204
TCCTCGAA	0.176
GAAAATTC	0.1
ATCCGCAC	0.029
ATCTTGCC	0.195
CCATAAAG	-0.0889
AGACGCAT	-0.0244
GGATACAC	-0.0641
CACAATCA	-0.0524
ACTGACTG	-0.0997
TAATACTA	0.202

Sequence	PBM E-score
AACGGACA	0.0563
AGGCGTAC	-0.22
ACGGAGCC	-0.28
CCTAATGC	-0.177
ATCTAAAA	-0.0295
CTGATAAC	0.0011
CGCACTCC	-0.129
AATTTTTC	-0.0131
ACCCGAAT	0.1
AGATTGAT	-0.17
AAGACGTG	-0.0832
GCATAGTA	0.23
CATGTTGA	0.258
GCCGTCTA	-0.0529
ATCTGTCG	0.0697
CCATGCTA	-0.0481
ATCCCTTA	0.0558
TCTTCAAA	0.0271
GCCTACCA	-0.197
CACACCTG	-0.124
ATAATGAG	0.0733
AGGCACGG	0.0978
CTCAGTTC	-0.104
AAACTGAT	0.0991
GTAACAAC	-0.099

Sequence	PBM E-score
AAGTCTTA	-0.202
GCTAACAA	-0.0183
GGCGTGCA	-0.105
TACACACA	0.0525
CTAACAAA	0.0682
CTCATCGC	-0.0484
CGTCGATC	0.0789
ACCATAGA	-0.105
GTGCATGA	0.00511
AACCAGTA	0.124
CCTGTGCG	0.129
CAACTTAA	-0.0495
CGATGTTA	0.0876
AGTAGAAA	0.0951
CACTTACC	0.15
GAAGTAAC	0.207
TGCCATAA	0.035
CGGGGAAA	0.104
GTGCAACA	-0.0879
TACCCTAA	0.107
AGGTTTAT	0.186
GTGTGATA	0.114
AGGGTACC	0.0534
GCGACATA	0.05
AAGATGGC	0.033

Quoted from the listing:
In PBM E-score, AAGTCTTA has the entry -0.202
In PBM E-score, CCTGTGCG has the entry 0.129
In PBM E-score, AAGATGGC has the entry 0.033

Going on with the list.

Sequence	PBM E-score
GATATCCC	0.105
AATTCACC	0.0809
CAATGTGC	-0.0389
GATATGCA	0.0698
ACGGATCC	0.143
ATGATCGA	-0.0111
GTCTGGAA	-0.183
GACGTTAC	-0.0985
AAGGAGCG	-0.226
GGCACAAC	-0.0416
CAAAGGTA	-0.0799
TGTTCCAA	-0.115
ACTACTGC	-0.0101
CCTCACAC	-0.145
CCAACTCA	0.0337
ACATTGAC	0.0449
GCATGAGA	0.193
GTTCCTAA	-0.0149
CGAGCTCC	0.12
AGGGGTGA	-0.0715
CAAACGGG	0.114
CTCGCTGA	0.0688
GCGTAAAC	-0.0492
CCGCAGCG	-0.126
GAACCGTA	-0.225

Sequence	PBM E-score
ATAAAACG	0.128
ACTTTGGC	-0.0761
ACTATCGA	0.0247
ATCCGTGG	-0.118
AGGCGACA	-0.111
ATACATTA	0.00796
GATATGGA	0.259
AGGTTCGG	-0.286
GCATTTCA	0.0344
AATCCGAA	-0.0278
CAGGGAAA	0.112
AAGCTGGC	-0.0595
AGACCGGC	-0.309
AATGTCCC	0.00384
CACATCTA	0.0921
GTACCCAA	-0.0929
CTGCCCTC	-0.193
CAGAACCC	0.0304
AGTATACC	0.0754
GACTAGTC	-0.183
GCGACCAC	-0.0633
AGAACCGA	-0.109
CAGGTGCG	-0.0105
AGGTCCCC	0.0498
AGTCGTGC	-0.136

Sequence	PBM E-score
ATGTTAGC	-0.135
AGTTGCAC	-0.0406
TAGTTAGA	-0.00057
ACTCAATC	0.0391
TATGGACA	0.0876
AGAACGGC	0.122
CCATGAAC	0.161
ACGTTCGC	-0.233
ACTGGCTC	-0.179
AATCAACG	-0.0167
CAAAAATA	0.204
GGTTGTAC	0.13
GTCGAAAC	0.0163
ATGAACGC	0.179
GCCACGCC	-0.108
ATAGCGTC	-0.091
CTACAGGC	-0.0785
CACTTCGA	0.0548
ACATGTTG	0.1
ACATTTCC	0.0865
GCGAGGGA	-0.135
CCAAATCC	-0.0777
GATTCAGC	-0.0365
GCCTAGAA	-0.012
CAATAATG	-0.0795

Sequence	PBM E-score
TGAAGAAA	0.0181
GAAGACAA	-0.039
TCCTATAA	-0.0317
CAGACTGG	-0.0929
CCACATCC	0.0994
CTATCCGA	-0.04
TGGGGAAA	0.189
CGGTCCTA	-0.314
ACATTGCT	-0.0115
CTTGTTGA	0.0683
AATTCTAA	0.0749
AAACATCG	-0.163
CAGCATAA	0.127
CCTAAATC	0.157
CATAAAAA	0.195
GGATTCAA	-0.0545
GACGAGGC	-0.141
TCTTCCAA	-0.147
TAGCCACA	0.0544
AACACCTT	0.0911
AGTAGACT	-0.0196
GACGTTCC	-0.00829
ATAGGTTA	-0.00463
GAATACTA	0.216
CAGGAGAA	0.106

Rewritten field by field: part of the list above
AATTCTAA
  PBM E-score: 0.0749
AAACATCG
  PBM E-score: -0.163
CAGCATAA
  PBM E-score: 0.127

Additional records follow:

Sequence	PBM E-score
AATCCGTG	-0.217
CGTGCGGA	-0.0446
CTAGGTTC	-0.107
CACAGATG	0.0643
GGTACACA	-0.0486
CCTTATCA	0.213
GAACCGGC	-0.079
CCTGTGAG	-0.0294
ACACCGCG	-0.0555
ACATTCTC	0.094
ACCCAGAC	0.0112
GCCCATCC	-0.164
AATCGGCT	-0.0361
CTTATTAA	0.196
CAAAGTTC	0.027
AGTATTCG	0.117
CAGGGCAG	0.038
CATTGTGC	0.0147
TACTAACA	0.172
CGGCGGCC	-0.198
TATAATGA	0.144
CAGGAATC	0.124
CGTATCCC	-0.22
CGCACCAG	0.0295
GGTTCAAA	0.0475

Sequence	PBM E-score
ATTAAGTG	0.0532
AGAACCAG	-0.0636
GCGCCACC	-0.162
GCGCGGGA	0.0263
ATTTCATC	0.198
GCGTTACA	0.027
GCAGCAGA	-0.134
ATCTGTGG	-0.0471
GCCCTGTA	0.208
AGTACTTC	0.157
GTTTTCTA	-0.0625
ATAATCCG	0.0659
GCAAAAAA	0.223
ATTCCGGA	0.228
GAAAAAGA	0.165
CCTTGGCC	-0.25
CAGAGGAG	-0.208
CAACGCTC	-0.0396
GCGTTTCC	-0.0401
AGTCGTAG	-0.0872
GCATATTA	0.133
GTACGTCA	-0.102
AGCGTGAT	0.067
ATGATTCG	0.0961
GAGTTCTA	-0.0695

Six consecutive records from above:
Sequence	PBM E-score
ATTCCGGA	0.228
GAAAAAGA	0.165
CCTTGGCC	-0.25
CAGAGGAG	-0.208
CAACGCTC	-0.0396
GCGTTTCC	-0.0401

Later entries:

Sequence	PBM E-score
TACAGGAA	0.142
CTACCTTA	-0.0504
CCTTTCAC	-0.032
ATTGGCCG	-0.0805
CAGACGCC	-0.0604
GCGTTCCA	-0.0723
ATTTGCAG	0.0718
CCGCCCAA	-0.199
AGGCGAAG	-0.0691
CACAAACC	-0.0883
ATGCACGA	0.0553
CCTCCAGG	-0.343
ACTTCTAT	0.0768
AACTACAT	-0.038
CTCAGGAC	0.0581
AAGAACCG	0.105
CATCTCTA	-0.0359
ACATTCCT	-0.00288
CCAGCACG	-0.177
AGCCGAAC	0.0896
CCCCCAAG	-0.264
GCGGTTCA	-0.0816
GCAACCTA	0.0294
GACCGCAA	0.0774
TGGGACAA	0.111

Sequence	PBM E-score
CGCCGATC	0.116
ATAAACAC	-0.0494
GCCAAAAA	0.0821
ACGAACAG	-0.0593
GCACCGCC	-0.0993
AGCAGGGC	0.0681
ACGATCTG	-0.16
CTGGTATC	0.0594
CGCCCTGA	0.167
GCATGAAA	0.107
GATCGGTA	0.0263
AAGACATT	-0.194
ACATGGAG	-0.0527
GAGCTCCA	0.186
ACAAGTGT	-0.0494
AGCATCAC	0.0726
ATAATTAA	0.264
AGTCTCAA	-0.111
GAGTGGCA	-0.0082
ACTACCTG	0.0949
GTACACAC	0.0719
ACAAGGCA	0.00328
CAGCCACG	-0.0543
CTAGTGCC	-0.142
GACAAGGA	0.0442

Sequence	PBM E-score
AAACTCTT	-0.187
AGGATACA	-0.0516
CCTTGGAA	0.126
GTGGCGGA	-0.147
ACCCAAGC	-0.261
GAACGGGA	-0.0111
CGAAGAAG	0.0928
AATCCGTC	0.15
AGAAATCC	0.0476
AGGGATTA	0.14
ACTACCAC	-0.0407
CCTGAGCA	0.0611
ACCGTCGA	-0.0695
ATTGAGAA	0.232
GGCGTAAA	-0.0744
CGTCGAAG	-0.127
ACCTGTCG	-0.117
AGTGGTAA	-0.0244
CGAAGATC	-0.0553
CGTCCATC	0.0178
TGACTAAA	-0.137
CTTGATGA	0.0989
CTAAATAC	0.0507
TAACCAAA	0.0641
TGGGCCCA	0.306

Sequence	PBM E-score
CCGACATA	0.0482
ACTAGGTA	-0.0776
AAAAGGCT	-0.0256
ATACCGAG	-0.155
CGTCATGA	0.102
ATATGTGC	0.00203
AATTAGGC	0.0337
CGTGAACA	0.172
CTCATTTC	-0.0953
ACTGGTAC	0.0907
ATTTGCCC	0.136
GGGTATTA	0.0279
ACCCGAAA	0.122
ACGAGGTC	0.0584
AGCATTAT	0.0243
GCGGGTAA	-0.0727
CATAGAGG	-0.132
GGCCGTAC	0.0111
CCACCTGC	0.0233
